Measurements: US20240094211A1, “COMPOSITIONS AND METHODS TARGETING S100A10 FOR THE TREATMENT AND DIAGNOSIS OF LIVER CANCER” (The University of Hong Kong, priority 2022, published 2024)
These are yes or no findings as the source states them, for the method shown. Binding seen in cells or lysates may run through a third protein. Some results given as binding are weak or reduced against the parent protein; the word gives no strength.

Chains of the proteins cited; added tags and fusions are not shown. Lines headed by an entry give the natural chain unless they say otherwise; changes in a name come on top. Residues count along the entry.
UniProt P06756, residues 31-1048: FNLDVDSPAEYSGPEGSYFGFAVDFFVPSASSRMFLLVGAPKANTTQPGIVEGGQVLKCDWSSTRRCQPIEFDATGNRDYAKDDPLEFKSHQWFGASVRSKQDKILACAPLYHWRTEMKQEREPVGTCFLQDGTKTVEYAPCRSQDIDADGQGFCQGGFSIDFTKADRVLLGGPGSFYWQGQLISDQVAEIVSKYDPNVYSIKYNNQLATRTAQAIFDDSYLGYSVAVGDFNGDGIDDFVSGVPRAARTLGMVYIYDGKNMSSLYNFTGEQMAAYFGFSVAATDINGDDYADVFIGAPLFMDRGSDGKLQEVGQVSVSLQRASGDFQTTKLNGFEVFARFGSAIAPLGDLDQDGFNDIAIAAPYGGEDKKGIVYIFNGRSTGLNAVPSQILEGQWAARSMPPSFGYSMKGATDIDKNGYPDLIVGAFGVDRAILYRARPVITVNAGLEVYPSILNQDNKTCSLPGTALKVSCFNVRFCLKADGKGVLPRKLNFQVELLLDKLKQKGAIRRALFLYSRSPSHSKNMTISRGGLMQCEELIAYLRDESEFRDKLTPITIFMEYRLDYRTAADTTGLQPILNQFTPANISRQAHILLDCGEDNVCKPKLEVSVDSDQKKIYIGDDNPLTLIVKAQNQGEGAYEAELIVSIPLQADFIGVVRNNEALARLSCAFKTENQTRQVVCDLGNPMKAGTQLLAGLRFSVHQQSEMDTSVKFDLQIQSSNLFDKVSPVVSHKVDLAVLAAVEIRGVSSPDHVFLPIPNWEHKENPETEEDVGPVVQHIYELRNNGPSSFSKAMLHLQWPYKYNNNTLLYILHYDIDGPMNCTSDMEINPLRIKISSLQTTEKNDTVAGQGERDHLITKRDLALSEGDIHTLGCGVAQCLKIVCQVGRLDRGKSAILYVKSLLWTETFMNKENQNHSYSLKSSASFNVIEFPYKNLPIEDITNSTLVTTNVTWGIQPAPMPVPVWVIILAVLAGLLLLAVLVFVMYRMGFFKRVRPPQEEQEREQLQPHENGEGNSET
UniProt P60903: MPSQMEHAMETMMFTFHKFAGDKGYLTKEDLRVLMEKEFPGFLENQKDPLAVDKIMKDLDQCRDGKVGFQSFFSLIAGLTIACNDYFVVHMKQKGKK

Legend:
[1] = target: EGFR (human) (UniProt P00533); assay: co-immunoprecipitation, as retold in the discussion
[2] = target: integrin αV (human) (UniProt P06756); assay: as above
[3] = target: integrin αV (human) (UniProt P06756); assay: co-immunoprecipitation with anti-S100A10 from S100A10-OE PLC cell lysate
[4] = target: integrin αV (human) (UniProt P06756); assay: co-immunoprecipitation with anti-S100A10 or IgG from S100A10-OE PLC cells (FIG. 6F)
[5] = target: EGFR (human) (UniProt P00533); assay: co-immunoprecipitation with anti-S100A10 or anti-EGFR from S100A10-OE PLC cell lysate
[6] = target: EGFR (human) (UniProt P00533); assay: co-immunoprecipitation with anti-S100A10, anti-EGFR or IgG from S100A10-OE PLC cells (FIG. 8I)

Measured: binding

S100A10 (from UniProt P60903 2-97)
binds: all assays above
